Values quoted from earlier work as cited in patent US7022720B2, “Synthetic diazonamides as novel anti-mitotic agents” (Board of Regents, The University of Texas System, priority 2001, dated 2006).

Test system: NCI 60-cell line human tumor screen
Details: COMPARE analysis, TGI level; cited from earlier work

SMILES | TGI (PCC), pairwise correlation coefficient with diazonamide
COc1cc2cc(c1Cl)N(C)C(=O)C[C@H](OC(=O)[C@H](C)N(C)C(C)=O)[C@]1(C)O[C@H]1[C@H](C)[C@@H]1C[C@@](O)(NC(=O)O1)[C@H](OC)/C=C/C=C(\C)C2 [Maytansine] | 0.615
CC[C@]1(O)C[C@@H]2CN(CCc3c([nH]c4ccccc34)[C@@](C(=O)OC)(c3cc4c(cc3OC)N(C)[C@H]3[C@@](O)(C(=O)OC)[C@H](OC(C)=O)[C@]5(CC)C=CCN6CC[C@]43[C@@H]65)C2)C1 [vinblastine] | 0.679
CC[C@]1(O)C[C@H]2CN(CCc3c([nH]c4ccccc34)[C@@](C(=O)OC)(c3cc4c(cc3OC)N(C=O)[C@H]3[C@@](O)(C(=O)OC)[C@H](OC(C)=O)[C@]5(CC)C=CCN6CC[C@]43[C@@H]65)C2)C1 [Vincristine] | 0.610
CO[C@@H](/C(C)=C/C=C/C(C)=C/c1coc(C)n1)[C@@H](C)[C@@H]1C[C@H](O)[C@@]2(C)O[C@@H]2/C=C/[C@@H](C)[C@H]2C[C@H](CC(=O)O2)C[C@@H]2O[C@H]2C(=O)O1 [Rhizoxin] | 0.593
